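Assay of Toxoplasma gondii numbers, read through their beta-galactosidase reporter with a colour substrate. Compounds at 50 µM. Higher reads as fewer parasites (inferred from which compounds were picked for retests). Of about 18,000 compounds tested this way, about 170 (0.94%) reached 50% or more in at least one test.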

Values are the deposited “Percent Effect”, in %.
How 0% and 100% were set is not recorded. Most values in the screen are low, and negative values occur.
The compounds are a random part of those screened.

| # | compound | Percent Effect |
|---|---|---|
| 1 | `CC(C)(C)Sc1cc(CN)ccn1` | -0.2705 |
| 2 | `CC(N)C(=O)N(C)Cc1ccncc1` (centres undefined) | -16.66 |
| 3 | `COC(=O)NCCc1ccc(S(N)(=O)=O)s1` | -9.016 |
| 4 | `Cc1csc(NC(=O)NCC2(O)CCN(C)CC2)n1` | -8.956 |
| 5 | `O=C(Nc1cccc(F)c1)N1CCCN(CCO)CC1` | 8.304 |
| 6 | `CC1=CS(=O)(=O)c2c(F)cccc21` | 27.11 |
| 7 | `OCCn1c(CO)nc2ccccc21` | -18.85 |
| 8 | `O=C(NCC1CCCO1)N1CCC2(C1)OCCO2` (centres undefined) | 0.7376 |
| 9 | `CCc1ncc(CN(C)C(=O)c2nccnc2N)s1` | -3.825 |
| 10 | `CC(CNC(=O)N[C@@H](C)C(=O)N(C)C)Cc1cccs1` (some centres undefined) | 2.258 |
| 11 | `C[C@@H](CO)NC(=O)c1cc(N(C)C)ccn1` | -21.34 |
| 12 | `CSCc1ccc(C(=O)NC(C)Cn2cncn2)o1` (centres undefined) | 7.08 |
| 13 | `CNC(=O)c1ccc(S(=O)(=O)N2CCC=C(F)C2)cc1` | -11.49 |
| 14 | `N#Cc1cncc(S(N)(=O)=O)c1` | 0.3404 |
| 15 | `CCc1cccc(NC(N)=O)c1` | -0.8921 |
| 16 | `CC(=O)c1cccc(NC(=O)CN2CCC[C@H]2CO)c1` | 1.219 |
| 17 | `Cc1nnc(CCNC(=O)C(N)c2c(C)n[nH]c2C)s1` (centres undefined) | -12.87 |
| 18 | `COc1ccc(CCN)c(OC)c1OC` | 14.92 |
| 19 | `O=C1CCCN1CC1CCNC1` (centres undefined) | 0.9784 |
| 20 | `Cc1n[nH]c(C)c1CCN(C)C(=O)C(O)CC(C)C` (centres undefined) | -1.096 |
| 21 | `COCCCN1CCN(C(C)c2nc(C)no2)CC1` (centres undefined) | 9.929 |
| 22 | `COCCOC1CCN(c2cc(N)nc(C)n2)CC1` | -9.984 |
| 23 | `CN1CCC(N)c2ccccc21` (centres undefined) | -5.247 |
| 24 | `COc1ccccc1CN(C)C(=O)Cn1cc(Br)cn1` | 0.4798 |
| 25 | `OCCN(CCN1CCOCC1)CC1CCOC1` (centres undefined) | -7.567 |
| 26 | `Cc1c[nH]c(CN2CCNC[C@H]2C)c(C)c1=O` | 14.92 |
| 27 | `Cc1ccccc1NC(=O)c1ncccn1` | 4.862 |
| 28 | `CSCc1cccc(CNC(=O)c2ccon2)c1` | -2.676 |
| 29 | `Cn1cc(Br)c(CN)n1` | -3.694 |
| 30 | `COc1c(C)cnc(CNC(=O)CSC)c1C` | 27.18 |
| 31 | `O=C(CN1CCC(O)CC1)Nc1ccccc1F` | -2.611 |
| 32 | `NCC1(O)CCS(=O)(=O)C1` (centres undefined) | -11.12 |
| 33 | `NCCNC(=O)c1nc(-c2ccccc2)no1` | -39.18 |
| 34 | `COCCNC(=O)CN1CCCC(C(F)(F)F)C1` (centres undefined) | -0.05253 |
| 35 | `Cc1ccccc1CC(=O)OCCC(N)=O` | -1.204 |
| 36 | `Cc1cc(CNc2cnccn2)ccc1-n1cncn1` | -1.607 |
| 37 | `CN(C)C(=O)CNC(=O)c1cc2ccccc2cc1O` | -6.174 |
| 38 | `CCC(C)NC(=O)c1cnn(-c2ccccc2)n1` (centres undefined) | -5.761 |
| 39 | `CSCc1nc(CNC(=O)CNC2CC2)cs1` | -15.16 |
| 40 | `O=C(Nc1cccc2c1OCCO2)NC1CC1` | 0.521 |
| 41 | `COC(=O)c1ccc(S(=O)(=O)N2CCOCC2)cc1` | 1.473 |
| 42 | `Cc1nc(CC(=O)NCCN2CCCCC2CO)cs1` (centres undefined) | -16.82 |
| 43 | `CCS(=O)(=O)NCCCNc1ccnc2ccsc12` | -6.082 |
| 44 | `CC(C)CC1C(=O)NCCN1C(=O)C1CCOCC1` (centres undefined) | 16.81 |
| 45 | `COc1ncccc1NS(=O)(=O)c1cccc(Cl)c1` | 36.73 |
| 46 | `CN(C)S(=O)(=O)NCCNc1cccc(Br)c1` | 5.22 |
| 47 | `O[C@H]1CC[C@@H](c2nc(C3CCOC3)n[nH]2)CC1` (some centres undefined) | -8.558 |

The first 6 entries again:

compound,Percent Effect
CC(C)(C)Sc1cc(CN)ccn1,-0.2705
CC(N)C(=O)N(C)Cc1ccncc1 (centres undefined),-16.66
COC(=O)NCCc1ccc(S(N)(=O)=O)s1,-9.016
Cc1csc(NC(=O)NCC2(O)CCN(C)CC2)n1,-8.956
O=C(Nc1cccc(F)c1)N1CCCN(CCO)CC1,8.304
CC1=CS(=O)(=O)c2c(F)cccc21,27.11

Measurements from “University of Dundee, Small-Polar-MMV Screening Library” (2021), ChEMBL document CHEMBL3988442.